Laboratory results as given in PMC7819943, “Rice protein-binding microarrays: a tool to detect cis-acting elements near promoter regions in rice”.
The other results are listed elsewhere or left out.

By UniProt entry, the sequences of proteins in these tests, tags left out.
UniProt Q0JBA9, entry or part of it: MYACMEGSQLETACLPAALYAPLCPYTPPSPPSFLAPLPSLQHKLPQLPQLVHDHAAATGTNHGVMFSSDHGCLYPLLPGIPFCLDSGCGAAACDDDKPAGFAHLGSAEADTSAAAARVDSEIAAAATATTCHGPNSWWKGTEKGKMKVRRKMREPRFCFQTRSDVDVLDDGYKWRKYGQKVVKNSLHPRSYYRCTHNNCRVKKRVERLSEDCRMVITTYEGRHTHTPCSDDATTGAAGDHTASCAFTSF

Biological target: OsWRKY34 (Oryza sativa, UniProt Q0JBA9 1-250)
Assay: protein-binding microarray (RPBM); PBS, 2% BSA, 51.3 ng/ul salmon testes DNA, 50 uM zinc acetate, 200 nM TF, 25 C, 1 h; high values mean tight binding
Conditions: protein: recombinant; tags: N-terminal polyhistidine and DsRed monomer fusion (pET32a); label: CyDye5-dUTP incorporated in the synthesized complementary strand; 3' TTTTT single-stranded linker to array surface; dsDNA, one strand shown
Outline: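 An Axon 4000B scanner gave the binding signal as per-feature fluorescence intensity in arbitrary units. This followed washing of a custom Agilent array that had been incubated for 1 h at 25 °C with 200 nM protein in PBS, 2% BSA, salmon testes DNA and 50 µM zinc acetate. The proteins were transcription factors fused at the N-terminus to polyhistidine and DsRed, expressed in E. coli BL21-CodonPlus and purified on Ni–NTA.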

Sequence	binding signal
TCCTACTAAAACTTTTCTTTTCTTTTCTCACTGTCTTTTCCGGAGTCACCTAGTGCAG	11800 fluorescence intensity (a.u.)
CTCTACCATGCACAGCAGCAGCAGCTTGTATCATCCTACTCGGAGTCACCTAGTGCAG	8080 fluorescence intensity (a.u.)
CATTAATTCATGAGTTGTATTTCATTATGTTCCGTATATACGGAGTCACCTAGTGCAG	8750 fluorescence intensity (a.u.)
AGATTCCTGTCATGTGTCCAATTAAGGCTTTGTTCATCGTCGGAGTCACCTAGTGCAG	9120 fluorescence intensity (a.u.)
CTACCGCATCCCCTCCCTCTCTCGGCGAGCCGAATCCATGCGGAGTCACCTAGTGCAG	8270 fluorescence intensity (a.u.)
CCGCTGCGCCACCGCCGCCGCGCCCCATGCTCCTCCACCTCGGAGTCACCTAGTGCAG	8560 fluorescence intensity (a.u.)
GAGGTTTTTCGCCGGTGTTTTGGTTGGCCTCCGCCGTTCCCGGAGTCACCTAGTGCAG	10800 fluorescence intensity (a.u.)
GCACTCAGCCACTTACCATGTTCTGGAATAAAAATTGAATCGGAGTCACCTAGTGCAG	10000 fluorescence intensity (a.u.)
GGCCATTGGCACCGCTCGCCGCCGCCACGACGACCGCCAACGGAGTCACCTAGTGCAG	8630 fluorescence intensity (a.u.)
CTTATAGTACTCCTCCAGCTTTGGTTACTCGTTTTGGTGACGGAGTCACCTAGTGCAG	9400 fluorescence intensity (a.u.)
AGATGTTTTTTTGGTACTTTAGTATGTCATCTGTGTTTAACGGAGTCACCTAGTGCAG	10900 fluorescence intensity (a.u.)
AAGCGATCGGGGCGGCGGAGGAGGTGGGTGGGAGGGAGGGCGGAGTCACCTAGTGCAG	30200 fluorescence intensity (a.u.)
GTTTGACCAATCTTCAGCTTTGATTGAGACGCTGACTTTTCGGAGTCACCTAGTGCAG	8460 fluorescence intensity (a.u.)
AAACATGTGCTAAAAAGTCAACGGTGTCAAACATTTTGAACGGAGTCACCTAGTGCAG	10400 fluorescence intensity (a.u.)
TGGCTTATCTCGTTTTGTATATCATCTTCTTAATCTTTTTCGGAGTCACCTAGTGCAG	10500 fluorescence intensity (a.u.)
CCACCGATTGCTTGTCTCCATTTGCACCCGCTCCAGAAACCGGAGTCACCTAGTGCAG	10200 fluorescence intensity (a.u.)
TATGAACTTGCTCGATCACTCTGTCACTCACTCACTCACCCGGAGTCACCTAGTGCAG	8960 fluorescence intensity (a.u.)
GACTTATCTAGAGCACTTATTATATGTGTTGGTGCCACGCCGGAGTCACCTAGTGCAG	8030 fluorescence intensity (a.u.)
AATATATTTTGACTATTTGTTTGTTTTGTATTGAAAATACCGGAGTCACCTAGTGCAG	9660 fluorescence intensity (a.u.)
ACGCTCACACATGCACACTCACAACCCTATAAACACCTCTCGGAGTCACCTAGTGCAG	8270 fluorescence intensity (a.u.)
GCATCCGCCTCCTATATATTGGACCTGCACCTCGCGCCGCCGGAGTCACCTAGTGCAG	8660 fluorescence intensity (a.u.)

Reformatted: entries from further up.
CTTATAGTACTCCTCCAGCTTTGGTTACTCGTTTTGGTGACGGAGTCACCTAGTGCAG
  binding signal = 9400 fluorescence intensity (a.u.)
AAACATGTGCTAAAAAGTCAACGGTGTCAAACATTTTGAACGGAGTCACCTAGTGCAG
  binding signal = 10400 fluorescence intensity (a.u.)
GCATCCGCCTCCTATATATTGGACCTGCACCTCGCGCCGCCGGAGTCACCTAGTGCAG
  binding signal = 8660 fluorescence intensity (a.u.)

More results

Sequence	binding signal
TTTCTCTGCTCCTCTTGCTCATCGACGTCAGCGTCCCCAACGGAGTCACCTAGTGCAG	8420 fluorescence intensity (a.u.)
TGTCGGAGCTCCATTTCTTTGGCTTGTTCATCCTCGAGCTCGGAGTCACCTAGTGCAG	8740 fluorescence intensity (a.u.)
ATTGTTTCATCTACATTTGCACCTCATAGTTGTGCAAGTTCGGAGTCACCTAGTGCAG	9070 fluorescence intensity (a.u.)
GGGATGTGACTCCATTATCATGCAAAGTTCCTAACCATGTCGGAGTCACCTAGTGCAG	9060 fluorescence intensity (a.u.)
TTGCTACTTAACCTTTTTTTTTTTTGACACTCCATTCAACCGGAGTCACCTAGTGCAG	9860 fluorescence intensity (a.u.)
TATCTAATAATTGGATGGTTACAACCAAATACTTCTACATCGGAGTCACCTAGTGCAG	9870 fluorescence intensity (a.u.)
GCTATTGTACCTGCTCTTATGATAGTATGCCCATCTCTGACGGAGTCACCTAGTGCAG	9340 fluorescence intensity (a.u.)
CCTCCTCGACGCTTCCACCGCGCCACCTCGCTCCTCCGCCCGGAGTCACCTAGTGCAG	8590 fluorescence intensity (a.u.)
ATGCTTTTATCCCCTGTTAATTTCTTGTGACCATTATTTTCGGAGTCACCTAGTGCAG	10900 fluorescence intensity (a.u.)
TGCTGTGAGTGTATATATTTGTACTGTGTTTTTCTTTAAACGGAGTCACCTAGTGCAG	8140 fluorescence intensity (a.u.)
CAGTTTGACAGTCACAAGAATAATTGGCCATCGCATCTCGCGGAGTCACCTAGTGCAG	8300 fluorescence intensity (a.u.)
GGATATAAAAATTTTCTTGGATGGGGTTTAAGTAAATTTCCGGAGTCACCTAGTGCAG	9520 fluorescence intensity (a.u.)
TGATGTGTGACAGGGGAGATTGTTGGGTTTAGTCCTCATGCGGAGTCACCTAGTGCAG	9710 fluorescence intensity (a.u.)
AACACGCACAACATTTTTCTTATACATTTCACTCGACGGCCGGAGTCACCTAGTGCAG	8830 fluorescence intensity (a.u.)
GAGGTGGGTGAGGGTCTGTTCAAATATCTATGTTAGTTTACGGAGTCACCTAGTGCAG	11800 fluorescence intensity (a.u.)
TACTAATCTCTCTCTCTTTCCTACTTTGCATCGATCGTCCCGGAGTCACCTAGTGCAG	8730 fluorescence intensity (a.u.)
TTTAGGGGTGAATTTGGATTGATTTAGATGTTGATGGTGTCGGAGTCACCTAGTGCAG	9200 fluorescence intensity (a.u.)
TTGGACTTCGATATGGTCTTCACGATGCTACTTTGACTAACGGAGTCACCTAGTGCAG	8610 fluorescence intensity (a.u.)
GCCTATATTTAATACTTCATTCAAGCGTTCGATATGACAGCGGAGTCACCTAGTGCAG	9430 fluorescence intensity (a.u.)
TCGTCAAATCTGGCCGTTTCAAGATAATATGCTAGCCGTTCGGAGTCACCTAGTGCAG	8850 fluorescence intensity (a.u.)
TCCACGAGTCAATTCAAGGTTTGACCACACTCTTTCCGTTCGGAGTCACCTAGTGCAG	11900 fluorescence intensity (a.u.)
